{
  "source": "patent US5985616A",
  "about": "(Schering Corporation, priority 1998, dated 1999)",
  "biological_target": "T1, rat/human hybrid Y5 receptor (Rattus norvegicus, UniProt Q63634, A112V/A269V/A301E/A310I/A316G/A346V/A437S/G302R/G306E/H244N/I334T/I355V/INS308S/K184Q/K195R/K307N/L309R/M349L/N267P/P272S/P315F/P324S/Q260H/Q275H/R266G/R283K/R436V/S273G/S343N/T271L/T274S/V311L/V328F/V338I/V385L/V66L)",
  "T1 construct": "consists of the first 35 amino acids of the rat Y5 receptor; appended to amino acids 36-445 of the human Y5 receptor; rat Y5 receptor first 35 residues (fusion partner); expressed in transfected cells; host or cells: COS1 cells (transient), membranes",
  "T1 sequence (Q63634 with tags, fused parts or gaps V66L/A112V/K184Q/K195R/H244N/Q260H/R266G/N267P/A269V/T271L/P272S/S273G/T274S/Q275H/R283K/A301E/G302R/G306E/K307N/INS308S/L309R/A310I/V311L/P315F/A316G/P324S/V328F/I334T/V338I/S343N/A346V/M349L/I355V/V385L/R436V/A437S)": "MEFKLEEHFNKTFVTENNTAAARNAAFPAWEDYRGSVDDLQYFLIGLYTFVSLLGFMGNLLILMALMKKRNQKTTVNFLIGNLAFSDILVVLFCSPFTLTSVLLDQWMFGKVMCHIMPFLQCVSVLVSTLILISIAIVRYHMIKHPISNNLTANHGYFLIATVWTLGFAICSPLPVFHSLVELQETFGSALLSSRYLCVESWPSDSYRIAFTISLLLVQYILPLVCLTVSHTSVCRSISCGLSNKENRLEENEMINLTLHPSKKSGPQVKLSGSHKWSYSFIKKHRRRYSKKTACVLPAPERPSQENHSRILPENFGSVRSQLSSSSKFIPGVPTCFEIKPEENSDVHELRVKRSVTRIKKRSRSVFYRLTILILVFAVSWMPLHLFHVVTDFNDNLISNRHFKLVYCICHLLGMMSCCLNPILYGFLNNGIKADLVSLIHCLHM",
  "assay": "Competition binding of [125I]PYY to membranes from COS1 cells transiently expressing the rat/human hybrid Y5 receptor",
  "conditions": "0.1 nM [125I]PYY, COS1 cell membranes, transient expression",
  "note": "At least one structure is not confirmed: it was looked up by name or label, or the drawing left a doubt.",
  "data": [
    {"smiles": "CC[C@H](C)[C@H](NC(=O)[C@H](Cc1ccc(O)cc1)NC(=O)[C@H](CCCNC(=N)N)NC(=O)[C@H](CCCNC(=N)N)NC(=O)[C@H](CC(C)C)NC(=O)[C@H](CCC(N)=O)NC(=O)[C@@H](NC(=O)[C@H](CCC(=O)O)NC(=O)[C@H](Cc1ccc(O)cc1)NC(=O)[C@H](CCC(N)=O)NC(=O)[C@H](C)NC(=O)[C@H](CCCNC(=N)N)NC(=O)[C@H](CCC(N)=O)NC(=O)[C@H](CCC(=O)O)NC(=O)[C@H](Cc1c[nH]cn1)NC(=O)[C@@H](NC(=O)[C@H](C)NC(=O)[C@H](Cc1ccc(O)cc1)NC(=O)[C@H](CC(=O)O)NC(=O)CNC(=O)[C@@H]1CCCN1C(=O)[C@H](Cc1ccc(O)cc1)NC(=O)[C@H](CCSC)NC(=O)[C@@H]1CCCN1C(=O)[C@H](CCC(=O)O)NC(=O)[C@H](CC(C)C)NC(=O)[C@@H]1CCCN1C(=O)[C@H](C)N)[C@@H](C)O)[C@@H](C)O)C(=O)N[C@@H](CC(N)=O)C(=O)N[C@H](C(=O)N[C@@H](CC(C)C)C(=O)N[C@H](C(=O)N[C@@H](CCCNC(=N)N)C(=O)N1CCC[C@H]1C(=O)N[C@@H](CCCNC(=N)N)C(=O)N[C@@H](Cc1ccc(O)cc1)C(N)=O)[C@@H](C)O)[C@@H](C)O", "note": "[Rat PP]", "values": [
      {"measurement": "Ki", "result": 75.6, "unit": "nM"}
    ]}
  ]
}
